This test has as its target biotinylated human FX (human) (UniProt P00742). Nature of the test: panning of an L chain library (fixed ACE910 H chain) on biotinylated human FX; no read-out printed.

Amino acid sequences for entries named in this document (tags omitted). Residues count along the entry.
UniProt P00742, residues 41-488: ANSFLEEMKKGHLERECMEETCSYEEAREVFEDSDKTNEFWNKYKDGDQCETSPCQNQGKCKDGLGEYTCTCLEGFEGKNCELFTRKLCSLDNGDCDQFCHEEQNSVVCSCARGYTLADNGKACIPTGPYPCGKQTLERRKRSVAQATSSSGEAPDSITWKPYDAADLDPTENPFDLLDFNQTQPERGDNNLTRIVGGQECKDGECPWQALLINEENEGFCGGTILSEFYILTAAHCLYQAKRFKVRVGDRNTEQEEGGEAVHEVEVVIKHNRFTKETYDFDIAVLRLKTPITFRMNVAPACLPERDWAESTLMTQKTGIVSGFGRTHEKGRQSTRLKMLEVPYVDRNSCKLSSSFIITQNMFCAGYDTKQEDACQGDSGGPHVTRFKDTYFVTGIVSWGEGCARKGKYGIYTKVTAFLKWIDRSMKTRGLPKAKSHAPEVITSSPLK

Results are given in words; binding and its absence hold for the method and conditions named. Some binding calls cover weakened binding; strength is not graded here.

B1: JNK163 (heavy chain SEQ ID NO: 46 and light chain SEQ ID NO: 20) (antibody, V domains shown)
VH: QVQLVQSGSELKKPGASVKVSCKASGYTFTDNNMDWVRQAPGQGLEWMGDINTRSGGSIYNEEFQDRVIMTVDKSTDTAYMELSSLRSEDTATYHCARRKSYGYYLDEWGEGTLVTVSS
VL: NIQMTQSPSSLSASVGDRVTITCRASQSIRSYLNWYQQKPGKAPKLLIYGAFTLQTGVPSRFSGSASGTDFTLTINNLQPEDFAVYHCQQSYRIPWTFGQGTKVEIK
In the case of B1, the binding result is given as “binds”.

B2: JNK252 (heavy chain SEQ ID NO: 46 and light chain SEQ ID NO: 21) (antibody, V domains shown)
VH: B1 VH
VL: NIQMTQSPASLSASVGDKVTITCQASQDIGTSLNWYQQRPGTAPKLLIFDTSNLEKGVPSRFSGSKSETYFTFAISSLQPEDIATYYCQQSYNIPWTFGRGTKVEIT
With B2, the binding result is “binds”.

(Values after US20190185578A1.)
